Results reported in the supplement of paper PMC6078165.
± gives the standard deviation of the averaged measurements. The reference is the same well before dosing, and untreated signal decays as well.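 Fibroblast labels denote human fibroblasts, mainly primary ones from uterus (C12385, HUF), lung (H6013), bone (Hs27A), adrenal (HADF) and skin (WS1), plus mammary HMF and breast cancer-associated Hs343T. Cancer cells are basal-like or mesenchymal-like triple-negative breast cancer lines. A hit is a response shift exceeding 3x replicate standard deviation. The tissue of the other fibroblasts is not given here.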

System: Hs578T
Experiment: relative JC-1 red fluorescence (viability) vs pre-drug, coculture with fibroblast (fraction); higher = more viable cancer cells
Conditions: 10 µM
Experimental: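 JC-1 labelled TNBC cells cocultured 1:1 (1,500 cells each) with CellTrace Violet stained primary or stromal fibroblasts in 384-well plates in FluoroBrite medium, treated with one of 42 anticancer drugs at 0.1, 1, 10 or 100 uM. JC-1 red fluorescence (mitochondrial integrity in cancer cells only) was read by plate reader every 8 h for 72 h. Values are normalised to each well's pre-drug value. The stock of one drug was tenfold lower, so its dose labels may be too high.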

O=C(O)C(=O)O.[NH-][C@@H]1CCCC[C@H]1[NH-].[Pt+2] [Oxaliplatin]
relative JC-1 red fluorescence
Conditions | 40 h | 48 h | 56 h | 64 h | 72 h
coculture fibroblast: C12385 | – | 0.466 ± 0.026 | 0.43 ± 0.022 | 0.405 ± 0.026 | 0.39 ± 0.026
coculture fibroblast: H6013 | – | 0.626 ± 0.057 | 0.597 ± 0.061 | 0.583 ± 0.062 | 0.555 ± 0.067
coculture fibroblast: H6019 | – | 0.497 ± 0.042 | 0.464 ± 0.033 | 0.442 ± 0.038 | 0.421 ± 0.036
coculture fibroblast: H6076 | – | 0.774 ± 0.017 | 0.757 ± 0.03 | 0.757 ± 0.042 | 0.754 ± 0.038
coculture fibroblast: H6231 | – | 0.587 ± 0.038 | 0.545 ± 0.031 | 0.523 ± 0.027 | 0.5 ± 0.024
coculture fibroblast: HADF | – | 0.567 ± 0.018 | 0.53 ± 0.022 | 0.51 ± 0.024 | 0.469 ± 0.03
coculture fibroblast: HCFa | – | 0.499 ± 0.021 | 0.464 ± 0.024 | 0.438 ± 0.021 | 0.399 ± 0.02
coculture fibroblast: HCPF | 0.688 ± 0.012 | 0.657 ± 0.013 | 0.631 ± 0.013 | 0.596 ± 0.01 | 0.564 ± 0.0069
coculture fibroblast: HHSteC | 0.599 ± 0.13 | 0.566 ± 0.14 | 0.544 ± 0.15 | 0.522 ± 0.16 | 0.496 ± 0.17
coculture fibroblast: HMF | 0.721 ± 0.0084 | 0.7023 ± 0.003 | 0.6634 ± 0.0044 | 0.634 ± 0.01 | 0.614 ± 0.02
coculture fibroblast: HPFa | 0.647 ± 0.074 | 0.609 ± 0.079 | 0.565 ± 0.082 | 0.544 ± 0.077 | 0.501 ± 0.075
coculture fibroblast: HUF | 0.584 ± 0.022 | 0.55 ± 0.021 | 0.518 ± 0.02 | 0.51 ± 0.033 | 0.49 ± 0.028
coculture fibroblast: Hs27A | 0.741 ± 0.018 | 0.738 ± 0.015 | 0.706 ± 0.014 | 0.692 ± 0.021 | 0.643 ± 0.028
coculture fibroblast: Hs343T | 0.65 ± 0.019 | 0.611 ± 0.011 | 0.558 ± 0.0097 | 0.5244 ± 0.0033 | 0.5022 ± 0.0045
coculture fibroblast: WS1 | 0.478 ± 0.051 | 0.448 ± 0.051 | 0.417 ± 0.06 | 0.402 ± 0.078 | 0.386 ± 0.082

Conditions | relative JC-1 red fluorescence
48 h | 0.577 ± 0.0088
56 h | 0.552 ± 0.016
64 h | 0.509 ± 0.015
72 h | 0.489 ± 0.01
